Results reported in article PMC7616682 (Journal of biological inorganic chemistry : JBIC : a …, 2024).
Values after ≈ are worked out from the molar mass of the structure shown.

Tested on: E. faecium ATCC 19434
Assay: MIC broth microdilution assay
Type: cell-based
Conditions: Enterococcus faecium, ATCC19434, 24 h, read-out: MIC E. faecium (Gram positive)
Method: Antibacterial activity assay […]
MIC broth microdilution assay
3 × 125 mL Erlenmeyer flasks, each filled with 12.5 mL MHBII, were inoculated with three different colonies of S. aureus NTCC 12973. 3 × 125 mL Erlenmeyer flasks, each filled with 12.5 mL BHI broth, were inoculated with three different colonies of E. faecium ATCC 19434. The cultures were incubated at 37 °C with shaking at 180 rpm for 16 h.
OD600 of ~2.5. The suspensions of S. aureus cultures were diluted 100-fold with MHBII while the E. faecium cultures were diluted 4-fold. The resultant suspensions were incubated for a further 3 h at 37 °C with shaking. […]
after 3 h. Stock solutions of the title compounds were prepared in the requisite broth from 100 mM stocks in DMSO with the exception of carbenicillin, which was from a 100 mM stock in water and vancomycin from a 10 mM stock in DMSO. 15 × 96 well plates were primed with concentration gradients of the analytes and carbenicillin as shown in Figure S60 for S. aureus. 15 × 96 well plates were primed with the concentration […]
μL per well of the relevant bacterial culture in the requisite broth to 100 μL per well.

For `CN[C@H](CC(C)C)C(=O)N[C@H]1C(=O)N[C@@H](CC(N)=O)C(=O)N[C@H]2C(=O)N[C@H]3C(=O)N[C@H](C(=O)N[C@H](C(=O)O)c4cc(O)cc(O)c4-c4cc3ccc4O)[C@H](O)c3ccc(c(Cl)c3)Oc3cc2cc(c3O[C@@H]2O[C@H](CO)[C@@H](O)[C@H](O)[C@H]2O[C@H]2C[C@](C)(N)[C@H](O)[C@H](C)O2)Oc2ccc(cc2Cl)[C@H]1O` [Vancomycin, reference compound], which MIC is on record?
The MIC was 0.5 µM (≈ 0.725 µg/mL).
